PMC6102140, “Structural insight into the human mitochondrial tRNA purine N1-methyltransferase and ribonuclease P complexes” (The Journal of Biological Chemistry, 2018)
Results are given in words; binding and its absence hold for the method and conditions named. For part of these data: Sequences can lack the tags named with a protein. Values belong to the binder of their own block, whether it stands above or below them.

Experiments:
[1] = molecular target: MRPP3_(ΔMTS) (mature mitochondrial RNase P protein 3, aa 51–583) (human) (UniProt O15091); experiment: SEC-SAXS; KW403-4F column in line with SAXS, 4.5 mg/ml; 50 mM sodium phosphate pH 7.4, 300 mM NaCl, 5% glycerol, 1% sucrose, 0.5 mM TCEP (for MRPP1, MRPP2 and MRPP1–MRPP2; buffer for MRPP3 alone not told); no tRNA; both purified
[2] = molecular target: T1, MRPP2 (HSD17B10), expressed alone, tag removed (human) (UniProt Q99714); experiment: SEC; analytical SEC of preincubated protein mixtures with MRPP3, Superdex S200, without pre-(mt)tRNA; both purified
T1 sequence: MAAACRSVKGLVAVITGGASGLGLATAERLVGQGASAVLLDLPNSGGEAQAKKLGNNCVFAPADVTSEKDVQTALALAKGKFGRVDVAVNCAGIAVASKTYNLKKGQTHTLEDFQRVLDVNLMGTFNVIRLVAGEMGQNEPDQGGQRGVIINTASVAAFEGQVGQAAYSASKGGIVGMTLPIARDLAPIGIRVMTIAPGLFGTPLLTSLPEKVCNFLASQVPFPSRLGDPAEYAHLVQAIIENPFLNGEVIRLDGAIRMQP

[3] = molecular target: MRPP3_(ΔMTS) (mature mitochondrial RNase P protein 3, aa 51–583) (human) (UniProt O15091); experiment: SEC; analytical SEC of single proteins, Superdex S200 10/300 GL (or KW403-4F), apparent mass from standards of known Mr, n = 3; both purified
[4] = molecular target: MRPP1_(MT+C(Δ194)) (MT domain with C extension, aa 195–403), expressed alone (human) (UniProt Q7L0Y3); experiment: as above
[5] = molecular target: MRPP3_(Δ206) (aa 207–583) (human) (UniProt O15091); experiment: SEC-SAXS; KW403-4F column in line with SAXS, 4.5 mg/ml; 50 mM sodium phosphate pH 7.4, 300 mM NaCl, 5% glycerol, 1% sucrose, 0.5 mM TCEP (for MRPP1, MRPP2 and MRPP1–MRPP2; buffer for MRPP3 alone not told); no tRNA; both purified
[6] = molecular target: T2, MRPP1_(ΔMTS)–MRPP2 complex (human) (UniProt Q7L0Y3+Q99714); experiment: SEC; analytical SEC of protein mixtures incubated with excess pre-(mt)tRNA^Ile, Superdex S200; fractions on SDS-PAGE and urea-PAGE; both purified
T2 sequence 1: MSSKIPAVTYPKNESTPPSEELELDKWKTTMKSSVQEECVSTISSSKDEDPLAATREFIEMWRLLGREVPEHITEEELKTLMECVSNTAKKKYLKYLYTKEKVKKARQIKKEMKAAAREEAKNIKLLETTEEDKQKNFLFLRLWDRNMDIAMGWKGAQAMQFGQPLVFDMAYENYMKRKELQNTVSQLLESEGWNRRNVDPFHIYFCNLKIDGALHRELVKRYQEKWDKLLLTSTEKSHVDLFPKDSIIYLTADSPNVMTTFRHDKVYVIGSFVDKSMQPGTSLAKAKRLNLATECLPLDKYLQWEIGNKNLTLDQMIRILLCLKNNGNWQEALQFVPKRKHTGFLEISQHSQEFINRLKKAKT
T2 sequence 2: T1 sequence

B2: MRPP1_(MT+C(Δ194)) (MT domain with C extension, aa 195–403), expressed alone (domain or fragment, UniProt Q7L0Y3 195-403)
chain: GAQAMQFGQPLVFDMAYENYMKRKELQNTVSQLLESEGWNRRNVDPFHIYFCNLKIDGALHRELVKRYQEKWDKLLLTSTEKSHVDLFPKDSIIYLTADSPNVMTTFRHDKVYVIGSFVDKSMQPGTSLAKAKRLNLATECLPLDKYLQWEIGNKNLTLDQMIRILLCLKNNGNWQEALQFVPKRKHTGFLEISQHSQEFINRLKKAKT
binding [4]: no binding

B3: MRPP3_(Δ206) (aa 207–583) (domain or fragment, UniProt O15091 207-583)
chain: TLEPRGYSLLIRGLIHSDRWREALLLLEDIKKVITPSKKNYNDCIQGALLHQDVNTAWNLYQELLGHDIVPMLETLKAFFDFGKDIKDDNYSNKLLDILSYLRNNQLYPGESFAHSIKTWFESVPGKQWKGQFTTVRKSGQCSGCGKTIESIQLSPEEYECLKGKIMRDVIDGGDQYRKTTPQELKRFENFIKSRPPFDVVIDGLNVAKMFPKVRESQLLLNVVSQLAKRNLRLLVLGRKHMLRRSSQWSRDEMEEVQKQASCFFADDISEDDPFLLYATLHSGNHCRFITRDLMRDHKACLPDAKTQRLFFKWQQGHQLAIVNRFPGSKLTFQRILSYDTVVQTTGDSWHIPYDEDLVERCSCEVPTKWLCLHQKT
binding [5]: no binding

Results, then the binder that gave them:

binding [1]: no binding
binding [2]: no binding
binding [3]: no binding
B1: MRPP3_(ΔMTS) (mature mitochondrial RNase P protein 3, aa 51–583) (protein, UniProt O15091 51-583)
chain: MSPQNTKATNLIAKARYLRKDEGSNKQVYSVPHFFLAGAAKERSQMNSQTEDHALAPVRNTIQLPTQPLNSEEWDKLKEDLKENTGKTSFESWIISQMAGCHSSIDVAKSLLAWVAAKNNGIVSYDLLVKYLYLCVFHMQTSEVIDVFEIMKARYKTLEPRGYSLLIRGLIHSDRWREALLLLEDIKKVITPSKKNYNDCIQGALLHQDVNTAWNLYQELLGHDIVPMLETLKAFFDFGKDIKDDNYSNKLLDILSYLRNNQLYPGESFAHSIKTWFESVPGKQWKGQFTTVRKSGQCSGCGKTIESIQLSPEEYECLKGKIMRDVIDGGDQYRKTTPQELKRFENFIKSRPPFDVVIDGLNVAKMFPKVRESQLLLNVVSQLAKRNLRLLVLGRKHMLRRSSQWSRDEMEEVQKQASCFFADDISEDDPFLLYATLHSGNHCRFITRDLMRDHKACLPDAKTQRLFFKWQQGHQLAIVNRFPGSKLTFQRILSYDTVVQTTGDSWHIPYDEDLVERCSCEVPTKWLCLHQKT

binding [6]: no binding
B4: MRPP3C (C-terminal region of MRPP3, aa 274–583) (domain or fragment, UniProt O15091 274-583)
chain: DIVPMLETLKAFFDFGKDIKDDNYSNKLLDILSYLRNNQLYPGESFAHSIKTWFESVPGKQWKGQFTTVRKSGQCSGCGKTIESIQLSPEEYECLKGKIMRDVIDGGDQYRKTTPQELKRFENFIKSRPPFDVVIDGLNVAKMFPKVRESQLLLNVVSQLAKRNLRLLVLGRKHMLRRSSQWSRDEMEEVQKQASCFFADDISEDDPFLLYATLHSGNHCRFITRDLMRDHKACLPDAKTQRLFFKWQQGHQLAIVNRFPGSKLTFQRILSYDTVVQTTGDSWHIPYDEDLVERCSCEVPTKWLCLHQKT
